# Data published in article PMC5841321.
# No constants are given. Whether binding was seen depends on the method and setting. Binding seen in cells or lysates may run through a third protein. These calls come from enrichment with a bait or labelling near it, and not all partners need be listed.
# T1: E3 ubiquitin-protein ligase Midline-1 (UniProt O15344)
# T1 sequence: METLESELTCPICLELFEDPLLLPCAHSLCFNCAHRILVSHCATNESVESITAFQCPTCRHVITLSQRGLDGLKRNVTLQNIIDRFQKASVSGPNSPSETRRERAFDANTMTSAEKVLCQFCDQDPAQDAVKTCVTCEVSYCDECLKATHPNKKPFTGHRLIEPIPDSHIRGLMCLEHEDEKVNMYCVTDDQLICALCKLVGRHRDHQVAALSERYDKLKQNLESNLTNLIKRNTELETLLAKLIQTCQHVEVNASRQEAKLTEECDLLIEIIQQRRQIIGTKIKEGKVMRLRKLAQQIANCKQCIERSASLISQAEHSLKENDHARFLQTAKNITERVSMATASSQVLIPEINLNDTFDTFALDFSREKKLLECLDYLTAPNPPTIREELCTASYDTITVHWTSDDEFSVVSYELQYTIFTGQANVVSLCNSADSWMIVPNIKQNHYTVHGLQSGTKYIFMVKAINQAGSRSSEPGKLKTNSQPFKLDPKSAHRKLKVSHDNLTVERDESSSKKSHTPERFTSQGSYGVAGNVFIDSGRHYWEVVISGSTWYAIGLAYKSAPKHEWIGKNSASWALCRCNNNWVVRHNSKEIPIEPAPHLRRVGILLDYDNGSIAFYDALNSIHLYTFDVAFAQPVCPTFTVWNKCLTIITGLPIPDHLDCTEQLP
# Biological target: T1, E3 ubiquitin-protein ligase Midline-1
# Experiment: affinity purification with mass spectrometry; MID1-FLAG expressed in HEK293T, lysate in TKM buffer (20 mM Tris pH 7.4, 100 mM KCl, 5 mM MgCl2, 0.5% NP40, 1 mM DTT), anti-FLAG M1 agarose overnight at 4 °C, 6 washes; untransfected cells as control; Q-Exactive, MaxQuant, 1% FDR
row,Binder,binding
1,"Splicing factor U2AF 35 kDa subunit (protein, UniProt Q01081 1-240) MAEYLASIFGTEKDKVNCSFYFKIGACRHGDRCSRLHNKPTFSQTIALLNIYRNPQNSSQSADGLRCAVSDVEMQEHYDEFFEEVFTEMEEKYGEVEEMNVCDNLGDHLVGNVYVKFRREEDAEKAVIDLNNRWFNGQPIHAELSPVTDFREACCRQYEMGECTRGGFCNFMHLKPISRELRRELYGRRRKKHRSRSRSRERRSRSRDRGRGGGGGGGGGGGGRERDRRRSRDRERSGRF",binds
2,"Serrate RNA effector molecule homolog (protein, UniProt Q9BXP5 1-876) MGDSDDEYDRRRRDKFRRERSDYDRSRERDERRRGDDWNDREWDRGRERRSRGEYRDYDRNRRERFSPPRHELSPPQKRMRRDWDEHSSDPYHSGYEMPYAGGGGGPTYGPPQPWGHPDVHIMQHHVLPIQARLGSIAEIDLGVPPPVMKTFKEFLLSLDDSVDETEAVKRYNDYKLDFRRQQMQDFFLAHKDEEWFRSKYHPDEVGKRRQEARGALQNRLRVFLSLMETGWFDNLLLDIDKADAIVKMLDAAVIKMEGGTENDLRILEQEEEEEQAGKPGEPSKKEEGRAGAGLGDGERKTNDKDEKKEDGKQAENDSSNDDKTKKSEGDGDKEEKKEDSEKEAKKSSKKRNRKHSGDDSFDEGSVSESESESESGQAEEEKEEAEEALKEKEKPKEEEWEKPKDAAGLECKPRPLHKTCSLFMRNIAPNISRAEIISLCKRYPGFMRVALSEPQPERRFFRRGWVTFDRSVNIKEICWNLQNIRLRECELSPGVNRDLTRRVRNINGITQHKQIVRNDIKLAAKLIHTLDDRTQLWASEPGTPPLPTSLPSQNPILKNITDYLIEEVSAEEEELLGSSGGAPPEEPPKEGNPAEINVERDEKLIKVLDKLLLYLRIVHSLDYYNTCEYPNEDEMPNRCGIIHVRGPMPPNRISHGEVLEWQKTFEEKLTPLLSVRESLSEEEAQKMGRKDPEQEVEKFVTSNTQELGKDKWLCPLSGKKFKGPEFVRKHIFNKHAEKIEEVKKEVAFFNNFLTDAKRPALPEIKPAQPPGPAQILPPGLTPGLPYPHQTPQGLMPYGQPRPPILGYGAGAVRPAVPTGGPPYPHAPYGAGRGNYDAFRGQGGYPGKPRNRMVRGDPRAIVEYRDLDAPDDVDFF",binds
3,"Serine/arginine-rich splicing factor 3 (protein, UniProt P84103 1-164) MHRDSCPLDCKVYVGNLGNNGNKTELERAFGYYGPLRSVWVARNPPGFAFVEFEDPRDAADAVRELDGRTLCGCRVRVELSNGEKRSRNRGPPPSWGRRPRDDYRRRSPPPRRRSPRRRSFSRSRSRSLSRDRRRERSLSRERNHKPSRSFSRSRSRSRSNERK",binds
4,"Serine/arginine-rich splicing factor 2 (protein, UniProt Q01130 1-221) MSYGRPPPDVEGMTSLKVDNLTYRTSPDTLRRVFEKYGRVGDVYIPRDRYTKESRGFAFVRFHDKRDAEDAMDAMDGAVLDGRELRVQMARYGRPPDSHHSRRGPPPRRYGGGGYGRRSRSPRRRRRSRSRSRSRSRSRSRSRYSRSKSRSRTRSRSRSTSKSRSARRSKSKSSSVSRSRSRSRSRSRSRSPPPVSKRESKSRSRSKSPPKSPEEEGAVSS",binds
5,"U4/U6.U5 tri-snRNP-associated protein 2 (protein, UniProt Q53GS9 1-565) MSGRSKRESRGSTRGKRESESRGSSGRVKRERDREREPEAASSRGSPVRVKREFEPASAREAPASVVPFVRVKREREVDEDSEPEREVRAKNGRVDSEDRRSRHCPYLDTINRSVLDFDFEKLCSISLSHINAYACLVCGKYFQGRGLKSHAYIHSVQFSHHVFLNLHTLKFYCLPDNYEIIDSSLEDITYVLKPTFTKQQIANLDKQAKLSRAYDGTTYLPGIVGLNNIKANDYANAVLQALSNVPPLRNYFLEEDNYKNIKRPPGDIMFLLVQRFGELMRKLWNPRNFKAHVSPHEMLQAVVLCSKKTFQITKQGDGVDFLSWFLNALHSALGGTKKKKKTIVTDVFQGSMRIFTKKLPHPDLPAEEKEQLLHNDEYQETMVESTFMYLTLDLPTAPLYKDEKEQLIIPQVPLFNILAKFNGITEKEYKTYKENFLKRFQLTKLPPYLIFCIKRFTKNNFFVEKNPTIVNFPITNVDLREYLSEEVQAVHKNTTYDLIANIVHDGKPSEGSYRIHVLHHGTGKWYELQDLQVTDILPQMITLSEAYIQIWKRRDNDETNQQGA",binds

# Now from value to binder:
row,binding,Binder
1,binds,"TRMT1-like protein (protein, UniProt Q7Z2T5 1-733) MENMAEEELLPLEKEEVEVAQVQVPTPARDSAGVPAPAPDSALDSAPTPASAPAPAPALAQAPALSPSLASAPEEAKSKRHISIQRQLADLENLAFVTDGNFDSASSLNSDNLDAGNRQACPLCPKEKFRACNSHKLRRHLQNLHWKVSVEFEGYRMCICHLPCRPVKPNIIGEQITSKMGAHYHCIICSATITRRTDMLGHVRRHMNKGETKSSYIAASTAKPPKEILKEADTDVQVCPNYSIPQKTDSYFNPKMKLNRQLIFCTLAALAEERKPLECLDAFGATGIMGLQWAKHLGNAVKVTINDLNENSVTLIQENCHLNKLKVVVDSKEKEKSDDILEEGEKNLGNIKVTKMDANVLMHLRSFDFIHLDPFGTSVNYLDSAFRNIRNLGIVSVTSTDISSLYAKAQHVARRHYGCNIVRTEYYKELAARIVVAAVARAAARCNKGIEVLFAVALEHFVLVVVRVLRGPTSADETAKKIQYLIHCQWCEERIFQKDGNMVEENPYRQLPCNCHGSMPGKTAIELGPLWSSSLFNTGFLKRMLFESLHHGLDDIQTLIKTLIFESECTPQSQFSIHASSNVNKQEENGVFIKTTDDTTTDNYIAQGKRKSNEMITNLGKKQKTDVSTEHPPFYYNIHRHSIKGMNMPKLKKFLCYLSQAGFRVSRTHFDPMGVRTDAPLMQFKSILLKYSTPTYTGGQSESHVQSASEDTVTERVEMSVNDKAEASGCRRW"
2,binds,"Tropomodulin-3 (protein, UniProt Q9NYL9 1-352) MALPFRKDLEKYKDLDEDELLGNLSETELKQLETVLDDLDPENALLPAGFRQKNQTSKSTTGPFDREHLLSYLEKEALEHKDREDYVPYTGEKKGKIFIPKQKPVQTFTEEKVSLDPELEEALTSASDTELCDLAAILGMHNLITNTKFCNIMGSSNGVDQEHFSNVVKGEKILPVFDEPPNPTNVEESLKRTKENDAHLVEVNLNNIKNIPIPTLKDFAKALETNTHVKCFSLAATRSNDPVATAFAEMLKVNKTLKSLNVESNFITGVGILALIDALRDNETLAELKIDNQRQQLGTAVELEMAKMLEENTNILKFGYQFTQQGPRTRAANAITKNNDLVRKRRVEGDHQ"
3,binds,"Very-long-chain enoyl-CoA reductase (protein, UniProt Q9NZ01 1-308) MKHYEVEILDAKTREKLCFLDKVEPHATIAEIKNLFTKTHPQWYPARQSLRLDPKGKSLKDEDVLQKLPVGTTATLYFRDLGAQISWVTVFLTEYAGPLFIYLLFYFRVPFIYGHKYDFTSSRHTVVHLACICHSFHYIKRLLETLFVHRFSHGTMPLRNIFKNCTYYWGFAAWMAYYINHPLYTPPTYGAQQVKLALAIFVICQLGNFSIHMALRDLRPAGSKTRKIPYPTKNPFTWLFLLVSCPNYTYEVGSWIGFAIMTQCLPVALFSLVGFTQMTIWAKGKHRSYLKEFRDYPPLRMPIIPFLL"
4,binds,"Transmembrane protein 33 (protein, UniProt P57088 1-247) MADTTPNGPQGAGAVQFMMTNKLDTAMWLSRLFTVYCSALFVLPLLGLHEAASFYQRALLANALTSALRLHQRLPHFQLSRAFLAQALLEDSCHYLLYSLIFVNSYPVTMSIFPVLLFSLLHAATYTKKVLDARGSNSLPLLRSVLDKLSANQQNILKFIACNEIFLMPATVFMLFSGQGSLLQPFIYYRFLTLRYSSRRNPYCRTLFNELRIVVEHIIMKPACPLFVRRLCLQSIAFISRLAPTVP"
5,binds,"Testis-expressed sequence 10 protein (protein, UniProt Q9NXF1 1-929) MTKKRKRQHDFQKVKLKVGKKKPKLQNATPTNFKTKTIHLPEQLKEDGTLPTNNRKLNIKDLLSQMHHYNAGVKQSALLGLKDLLSQYPFIIDAHLSNILSEVTAVFTDKDANVRLAAVQLLQFLAPKIRAEQISPFFPLVSAHLSSAMTHITEGIQEDSLKVLDILLEQYPALITGRSSILLKNFVELISHQQLSKGLINRDRSQSWILSVNPNRRLTSQQWRLKVLVRLSKFLQALADGSSRLRESEGLQEQKENPHATSNSIFINWKEHANDQQHIQVYENGGSQPNVSSQFRLRYLVGGLSGVDEGLSSTENLKGFIEIIIPLLIECWVEAVPPQLATPVGNGIEREPLQVMQQVLNIISLLWKLSKQQDETHKLESWLRKNYLIDFKHHFMSRFPYVLKEITKHKRKEPNKSIKHCTVLSNNIDHLLLNLTLSDIMVSLANASTLQKDCSWIEMIRKFVTETLEDGSRLNSKQLNRLLGVSWRLMQIQPNREDTETLIKAVYTLYQQRGLILPVRTLLLKFFSKIYQTEELRSCRFRYRSKVLSRWLAGLPLQLAHLGSRNPELSTQLIDIIHTAAARANKELLKSLQATALRIYDPQEGAVVVLPADSQQRLVQLVYFLPSLPADLLSRLSRCCIMGRLSSSLAAMLIGILHMRSSFSGWKYSAKDWLMSDVDYFSFLFSTLTGFSKEELTWLQSLRGVPHVIQTQLSPVLLYLTDLDQFLHHWDVTEAVFHSLLVIPARSQNFDILQSAISKHLVGLTVIPDSTAGCVFGVICKLLDHTCVVSETLLPFLASCCYSLLYFLLTIEKGEAEHLRKRDKLWGVCVSILALLPRVLRLMLQSLRVNRVGPEELPVVGQLLRLLLQHAPLRTHMLTNAILVQQIIKNITTLKSGSVQEQWLTDLHYCFNVYITGHPQGPSALATVY"
